{"source": "the supplement of paper PMC6411743", "experiment_in_all_cases": "NP40-soluble protein abundance relative to vehicle (solubility fold change) (ratio); higher = more soluble protein in presence of ATP", "key": {"[1]": {"target": "T1, UniProt Q9H4L7 and related entries", "T1 sequence (whole entry)": "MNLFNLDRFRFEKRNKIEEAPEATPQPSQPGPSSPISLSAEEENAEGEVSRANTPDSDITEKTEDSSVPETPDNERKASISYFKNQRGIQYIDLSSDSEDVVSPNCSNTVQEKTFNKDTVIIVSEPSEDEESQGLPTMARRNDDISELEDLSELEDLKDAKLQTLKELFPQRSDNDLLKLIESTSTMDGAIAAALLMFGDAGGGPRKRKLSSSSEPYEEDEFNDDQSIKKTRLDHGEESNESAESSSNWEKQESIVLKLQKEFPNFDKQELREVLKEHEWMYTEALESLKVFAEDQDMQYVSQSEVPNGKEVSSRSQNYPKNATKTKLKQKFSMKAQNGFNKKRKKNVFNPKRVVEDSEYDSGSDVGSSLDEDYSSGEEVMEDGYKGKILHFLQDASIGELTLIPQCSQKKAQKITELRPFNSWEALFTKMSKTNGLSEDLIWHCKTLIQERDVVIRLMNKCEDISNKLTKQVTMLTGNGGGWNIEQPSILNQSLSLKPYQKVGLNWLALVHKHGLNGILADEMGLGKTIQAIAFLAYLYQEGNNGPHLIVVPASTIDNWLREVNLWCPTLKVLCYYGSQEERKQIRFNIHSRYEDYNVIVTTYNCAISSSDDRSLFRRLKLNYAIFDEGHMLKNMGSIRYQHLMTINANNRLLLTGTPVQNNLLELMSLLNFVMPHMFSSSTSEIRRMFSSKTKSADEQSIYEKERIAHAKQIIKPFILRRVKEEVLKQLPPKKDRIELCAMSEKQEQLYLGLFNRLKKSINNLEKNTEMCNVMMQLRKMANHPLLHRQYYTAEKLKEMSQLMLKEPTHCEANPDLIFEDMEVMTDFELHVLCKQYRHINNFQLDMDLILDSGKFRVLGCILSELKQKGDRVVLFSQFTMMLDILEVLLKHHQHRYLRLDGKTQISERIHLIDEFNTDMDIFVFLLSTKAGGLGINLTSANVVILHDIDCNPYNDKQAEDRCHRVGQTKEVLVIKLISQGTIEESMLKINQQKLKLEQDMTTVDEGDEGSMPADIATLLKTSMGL", "outline": "(§1)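 In three independent experiments, Jurkat crude lysate made by Dounce homogenisation was treated for 10 min at room temperature and then 3 min at 37 °C with eight concentrations ranging from 0.1 to 10 mM. It was then solubilised with 0.8% NP40 plus benzonase for 60 min at 4 °C and ultracentrifuged. The supernatant was TMT-labelled for LC-MS/MS, and each value is the fold change against the detergent-processed vehicle for the same replicate, using vsn-normalised intensities.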"}, "[2]": {"target": "T2, UniProt Q9H6R7 and related entries", "T2 sequence (whole entry)": "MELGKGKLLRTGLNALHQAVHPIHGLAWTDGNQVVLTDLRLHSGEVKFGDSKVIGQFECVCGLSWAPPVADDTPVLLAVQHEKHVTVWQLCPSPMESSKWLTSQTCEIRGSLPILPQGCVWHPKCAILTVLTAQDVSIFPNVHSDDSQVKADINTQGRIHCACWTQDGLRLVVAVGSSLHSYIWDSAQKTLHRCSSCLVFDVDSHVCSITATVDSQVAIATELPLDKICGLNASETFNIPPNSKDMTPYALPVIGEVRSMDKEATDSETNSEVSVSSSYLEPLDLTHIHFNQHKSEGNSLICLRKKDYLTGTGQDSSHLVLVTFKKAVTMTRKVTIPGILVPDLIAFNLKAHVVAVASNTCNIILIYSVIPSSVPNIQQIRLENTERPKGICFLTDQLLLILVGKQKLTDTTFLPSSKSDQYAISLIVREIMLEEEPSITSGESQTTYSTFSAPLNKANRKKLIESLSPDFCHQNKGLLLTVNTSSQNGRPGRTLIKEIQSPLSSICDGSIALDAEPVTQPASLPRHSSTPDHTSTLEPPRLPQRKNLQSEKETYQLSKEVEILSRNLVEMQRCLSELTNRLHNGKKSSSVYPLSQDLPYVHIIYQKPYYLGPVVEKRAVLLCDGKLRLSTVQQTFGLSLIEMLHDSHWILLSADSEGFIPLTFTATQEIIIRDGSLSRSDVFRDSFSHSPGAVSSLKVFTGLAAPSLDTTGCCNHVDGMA", "outline": "as §1"}, "[3]": {"target": "T3, UniProt Q9H7X7 and related entries", "T3 sequence (whole entry)": "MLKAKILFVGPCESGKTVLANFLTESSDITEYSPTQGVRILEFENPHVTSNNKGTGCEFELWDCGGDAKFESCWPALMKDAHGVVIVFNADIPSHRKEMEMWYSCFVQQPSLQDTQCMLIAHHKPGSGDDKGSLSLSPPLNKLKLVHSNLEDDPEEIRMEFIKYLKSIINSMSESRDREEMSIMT", "outline": "as §1"}, "[4]": {"target": "T4, UniProt Q9H7Z6 and related entries", "T4 sequence (whole entry)": "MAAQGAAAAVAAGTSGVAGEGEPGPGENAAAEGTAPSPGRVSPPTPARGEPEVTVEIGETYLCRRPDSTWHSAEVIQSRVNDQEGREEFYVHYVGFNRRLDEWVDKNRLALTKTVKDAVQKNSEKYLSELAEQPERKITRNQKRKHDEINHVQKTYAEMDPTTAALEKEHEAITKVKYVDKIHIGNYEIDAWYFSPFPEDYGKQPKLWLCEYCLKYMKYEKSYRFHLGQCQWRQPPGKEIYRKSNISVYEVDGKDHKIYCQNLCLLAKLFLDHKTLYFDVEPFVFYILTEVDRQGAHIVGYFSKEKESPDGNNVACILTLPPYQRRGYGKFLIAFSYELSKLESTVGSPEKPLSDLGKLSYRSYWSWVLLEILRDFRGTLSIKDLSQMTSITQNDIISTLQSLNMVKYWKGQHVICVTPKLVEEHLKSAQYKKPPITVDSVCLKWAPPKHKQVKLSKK", "outline": "as §1"}, "[5]": {"target": "T5, UniProt Q9HAS0 and related entries", "T5 sequence (whole entry)": "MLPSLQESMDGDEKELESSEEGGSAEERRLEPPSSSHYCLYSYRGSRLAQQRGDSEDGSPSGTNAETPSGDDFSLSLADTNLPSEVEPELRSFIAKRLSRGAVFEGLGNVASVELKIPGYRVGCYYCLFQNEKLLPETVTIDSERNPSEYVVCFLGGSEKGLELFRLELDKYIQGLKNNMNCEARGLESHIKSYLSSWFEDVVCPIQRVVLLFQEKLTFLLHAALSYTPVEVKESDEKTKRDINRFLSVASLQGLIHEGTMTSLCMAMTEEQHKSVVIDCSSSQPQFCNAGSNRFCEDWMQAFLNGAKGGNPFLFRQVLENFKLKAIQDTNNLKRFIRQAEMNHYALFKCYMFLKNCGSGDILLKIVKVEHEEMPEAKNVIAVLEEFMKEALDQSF", "outline": "as §1"}}, "note": "± gives the standard deviation of the averaged measurements. This is a selection; strong and weak results do not stand in their true shares.", "data": [{"smiles": "Nc1ncnc2c1ncn2[C@@H]1O[C@H](COP(=O)(O)OP(=O)(O)OP(=O)(O)O)[C@@H](O)[C@H]1O", "note": "[adenosine triphosphate]", "values": [{"measurement": "NP40-soluble protein abundance", "setting": "[1]; concentration: 6mM", "value": "0.971 ± 0.04"}, {"measurement": "NP40-soluble protein abundance", "setting": "[1]; concentration: 8mM", "value": "0.943 ± 0.028"}, {"measurement": "NP40-soluble protein abundance", "setting": "[1]; concentration: 10mM", "value": "0.947 ± 0.024"}, {"measurement": "NP40-soluble protein abundance", "setting": "[2]; concentration: 1mM", "value": "0.995 ± 0.03"}, {"measurement": "NP40-soluble protein abundance", "setting": "[2]; concentration: 2mM", "value": "0.977 ± 0.15"}, {"measurement": "NP40-soluble protein abundance", "setting": "[2]; concentration: 4mM", "value": "0.934 ± 0.16"}, {"measurement": "NP40-soluble protein abundance", "setting": "[2]; concentration: 6mM", "value": "1 ± 0.14"}, {"measurement": "NP40-soluble protein abundance", "setting": "[2]; concentration: 8mM", "value": "0.942 ± 0.21"}, {"measurement": "NP40-soluble protein abundance", "setting": "[2]; concentration: 10mM", "value": "1.03 ± 0.14"}, {"measurement": "NP40-soluble protein abundance", "setting": "[3]; concentration: 1mM", "value": "1.03 ± 0.073"}, {"measurement": "NP40-soluble protein abundance", "setting": "[3]; concentration: 2mM", "value": "1.04 ± 0.026"}, {"measurement": "NP40-soluble protein abundance", "setting": "[3]; concentration: 4mM", "value": "1.03 ± 0.065"}, {"measurement": "NP40-soluble protein abundance", "setting": "[3]; concentration: 6mM", "value": "1.04 ± 0.066"}, {"measurement": "NP40-soluble protein abundance", "setting": "[3]; concentration: 8mM", "value": "1.01 ± 0.014"}, {"measurement": "NP40-soluble protein abundance", "setting": "[3]; concentration: 10mM", "value": "1.03 ± 0.042"}, {"measurement": "NP40-soluble protein abundance", "setting": "[4]; concentration: 1mM", "value": "1.06 ± 0.025"}, {"measurement": "NP40-soluble protein abundance", "setting": "[4]; concentration: 2mM", "value": "1.08 ± 0.042"}, {"measurement": "NP40-soluble protein abundance", "setting": "[4]; concentration: 4mM", "value": "1.07 ± 0.014"}, {"measurement": "NP40-soluble protein abundance", "setting": "[4]; concentration: 6mM", "value": "1.061 ± 0.0093"}, {"measurement": "NP40-soluble protein abundance", "setting": "[4]; concentration: 8mM", "value": "1.12 ± 0.039"}, {"measurement": "NP40-soluble protein abundance", "setting": "[4]; concentration: 10mM", "value": "1.13 ± 0.055"}, {"measurement": "NP40-soluble protein abundance", "setting": "[5]; concentration: 1mM", "value": "1.04 ± 0.08"}, {"measurement": "NP40-soluble protein abundance", "setting": "[5]; concentration: 2mM", "value": "1.05 ± 0.047"}, {"measurement": "NP40-soluble protein abundance", "setting": "[5]; concentration: 4mM", "value": "1.06 ± 0.028"}, {"measurement": "NP40-soluble protein abundance", "setting": "[5]; concentration: 6mM", "value": "0.985 ± 0.019"}, {"measurement": "NP40-soluble protein abundance", "setting": "[5]; concentration: 8mM", "value": "1.11 ± 0.037"}, {"measurement": "NP40-soluble protein abundance", "setting": "[5]; concentration: 10mM", "value": "1.12 ± 0.06"}]}]}
